Laboratory results: publication PMC6345753

Legend:
PPARγ + RXRα [1] = test: competition with a labelled probe; settings: 200-fold unlabeled, vs labeled consensus PPRE; 4 fmol labeled DNA, 3.7 pmol PPARγ, 3.9 pmol RXRα in 20 µl; 20 ng poly(dI.dC), 2.5% glycerol, 0.05% NP-40, 5 mM MgCl2; on ice 20 min; 4% native gel, 1x TBE, 4 °C; recombinant protein; label: 3' biotin (unlabeled as competitor)
PPARγ + RXRα [2] = test: EMSA; settings: labeled mutant probe; 4 fmol labeled DNA, 3.7 pmol PPARγ, 3.9 pmol RXRα in 20 µl; 20 ng poly(dI.dC), 2.5% glycerol, 0.05% NP-40, 5 mM MgCl2; on ice 20 min; 4% native gel, 1x TBE, 4 °C; recombinant protein; label: 3' biotin (unlabeled as competitor)

Sequence	binding result (PPARγ + RXRα [1])	binding result (PPARγ + RXRα [2])
CAAAACTAGGTCAAAGGTCA (double strand) [consensus PPRE]	binds	
CAAAACTAGCACAAAGCACA (double strand) [consensus PPREmt]		no binding

For at least one entry, the source does not settle the construct or the ends of the probe. For some assays here: No signal at the amounts used counts as a negative. At least one verdict was read from the data and is not stated in words by the source.
